Targets include BirA*-BaxS184V (UniProt Q07812); BirA*-Bcl-2 (UniProt P10415); BirA*-BaxWT (UniProt Q07812).
Common to all, as to experiment: proximity labelling
For test [1], the target named is BirA*-Bcl-XL (UniProt Q07817).
The target in test [2] is BirA*-Bcl-XL (UniProt Q07817). The source holds these as a separate data set.

The chains behind the UniProt entries cited, without tags or fusion partners. Where a name states a change or a piece, a line headed by the entry shows the natural chain unless it says otherwise.
UniProt Q07812: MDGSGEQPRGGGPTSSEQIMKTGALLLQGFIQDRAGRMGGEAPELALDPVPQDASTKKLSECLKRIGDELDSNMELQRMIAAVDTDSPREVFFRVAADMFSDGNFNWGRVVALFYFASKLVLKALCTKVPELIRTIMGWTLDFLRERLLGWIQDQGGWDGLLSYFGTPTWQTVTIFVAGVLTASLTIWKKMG
UniProt P10415: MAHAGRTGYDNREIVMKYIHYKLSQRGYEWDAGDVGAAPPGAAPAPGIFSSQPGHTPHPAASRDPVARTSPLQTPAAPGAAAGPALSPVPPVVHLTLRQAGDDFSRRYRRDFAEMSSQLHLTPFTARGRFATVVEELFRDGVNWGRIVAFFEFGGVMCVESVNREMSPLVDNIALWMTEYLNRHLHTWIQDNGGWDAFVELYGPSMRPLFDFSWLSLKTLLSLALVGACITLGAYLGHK
UniProt Q07817: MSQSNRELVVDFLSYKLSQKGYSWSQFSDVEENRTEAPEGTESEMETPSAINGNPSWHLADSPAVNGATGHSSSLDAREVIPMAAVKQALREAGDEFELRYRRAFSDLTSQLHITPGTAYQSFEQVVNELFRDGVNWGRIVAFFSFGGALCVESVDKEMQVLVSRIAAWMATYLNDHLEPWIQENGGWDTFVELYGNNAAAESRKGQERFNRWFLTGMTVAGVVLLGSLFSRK
UniProt O00429: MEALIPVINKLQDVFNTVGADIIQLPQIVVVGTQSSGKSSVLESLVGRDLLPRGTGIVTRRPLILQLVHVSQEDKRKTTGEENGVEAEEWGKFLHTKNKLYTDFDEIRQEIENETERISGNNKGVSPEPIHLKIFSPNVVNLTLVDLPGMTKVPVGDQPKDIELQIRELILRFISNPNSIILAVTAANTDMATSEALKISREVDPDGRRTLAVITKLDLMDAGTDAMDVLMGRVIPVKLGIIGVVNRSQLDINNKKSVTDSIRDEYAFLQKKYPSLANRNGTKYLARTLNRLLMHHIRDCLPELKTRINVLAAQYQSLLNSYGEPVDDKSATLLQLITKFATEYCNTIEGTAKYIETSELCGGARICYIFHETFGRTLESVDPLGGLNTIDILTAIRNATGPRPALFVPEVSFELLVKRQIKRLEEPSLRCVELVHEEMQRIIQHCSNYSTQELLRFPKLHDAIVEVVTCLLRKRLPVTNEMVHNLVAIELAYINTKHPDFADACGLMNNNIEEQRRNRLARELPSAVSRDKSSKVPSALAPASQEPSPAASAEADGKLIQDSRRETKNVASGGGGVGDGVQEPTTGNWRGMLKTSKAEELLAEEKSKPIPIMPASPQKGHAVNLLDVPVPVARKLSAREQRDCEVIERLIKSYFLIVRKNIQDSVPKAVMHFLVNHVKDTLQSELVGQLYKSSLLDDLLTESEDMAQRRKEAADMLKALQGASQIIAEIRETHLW
UniProt Q9BXK5: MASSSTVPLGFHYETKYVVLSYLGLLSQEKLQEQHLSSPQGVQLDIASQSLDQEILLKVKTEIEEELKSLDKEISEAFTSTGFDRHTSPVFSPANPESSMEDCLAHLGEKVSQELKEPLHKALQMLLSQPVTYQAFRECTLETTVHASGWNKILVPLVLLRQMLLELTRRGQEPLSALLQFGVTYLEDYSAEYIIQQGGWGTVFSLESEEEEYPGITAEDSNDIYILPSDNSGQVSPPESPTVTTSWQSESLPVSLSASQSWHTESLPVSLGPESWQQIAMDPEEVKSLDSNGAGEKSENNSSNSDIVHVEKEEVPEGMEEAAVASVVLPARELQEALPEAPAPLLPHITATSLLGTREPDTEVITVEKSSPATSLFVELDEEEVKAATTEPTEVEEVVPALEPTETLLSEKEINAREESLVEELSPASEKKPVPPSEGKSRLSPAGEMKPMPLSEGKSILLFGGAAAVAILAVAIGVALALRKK
UniProt Q07065: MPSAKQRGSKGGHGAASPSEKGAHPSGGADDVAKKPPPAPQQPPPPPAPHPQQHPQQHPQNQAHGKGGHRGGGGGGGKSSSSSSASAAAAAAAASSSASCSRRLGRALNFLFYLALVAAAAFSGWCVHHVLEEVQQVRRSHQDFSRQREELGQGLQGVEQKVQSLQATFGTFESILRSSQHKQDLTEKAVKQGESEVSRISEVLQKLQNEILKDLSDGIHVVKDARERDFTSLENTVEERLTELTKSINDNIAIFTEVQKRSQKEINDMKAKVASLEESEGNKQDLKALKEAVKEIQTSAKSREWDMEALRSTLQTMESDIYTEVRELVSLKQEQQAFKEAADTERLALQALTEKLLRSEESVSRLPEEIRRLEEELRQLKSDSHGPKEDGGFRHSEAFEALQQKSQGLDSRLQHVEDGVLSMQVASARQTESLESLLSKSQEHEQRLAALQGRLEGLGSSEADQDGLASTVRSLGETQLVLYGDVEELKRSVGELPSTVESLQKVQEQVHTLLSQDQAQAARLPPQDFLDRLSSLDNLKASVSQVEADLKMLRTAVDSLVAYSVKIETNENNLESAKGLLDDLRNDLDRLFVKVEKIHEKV
UniProt Q9Y2I7: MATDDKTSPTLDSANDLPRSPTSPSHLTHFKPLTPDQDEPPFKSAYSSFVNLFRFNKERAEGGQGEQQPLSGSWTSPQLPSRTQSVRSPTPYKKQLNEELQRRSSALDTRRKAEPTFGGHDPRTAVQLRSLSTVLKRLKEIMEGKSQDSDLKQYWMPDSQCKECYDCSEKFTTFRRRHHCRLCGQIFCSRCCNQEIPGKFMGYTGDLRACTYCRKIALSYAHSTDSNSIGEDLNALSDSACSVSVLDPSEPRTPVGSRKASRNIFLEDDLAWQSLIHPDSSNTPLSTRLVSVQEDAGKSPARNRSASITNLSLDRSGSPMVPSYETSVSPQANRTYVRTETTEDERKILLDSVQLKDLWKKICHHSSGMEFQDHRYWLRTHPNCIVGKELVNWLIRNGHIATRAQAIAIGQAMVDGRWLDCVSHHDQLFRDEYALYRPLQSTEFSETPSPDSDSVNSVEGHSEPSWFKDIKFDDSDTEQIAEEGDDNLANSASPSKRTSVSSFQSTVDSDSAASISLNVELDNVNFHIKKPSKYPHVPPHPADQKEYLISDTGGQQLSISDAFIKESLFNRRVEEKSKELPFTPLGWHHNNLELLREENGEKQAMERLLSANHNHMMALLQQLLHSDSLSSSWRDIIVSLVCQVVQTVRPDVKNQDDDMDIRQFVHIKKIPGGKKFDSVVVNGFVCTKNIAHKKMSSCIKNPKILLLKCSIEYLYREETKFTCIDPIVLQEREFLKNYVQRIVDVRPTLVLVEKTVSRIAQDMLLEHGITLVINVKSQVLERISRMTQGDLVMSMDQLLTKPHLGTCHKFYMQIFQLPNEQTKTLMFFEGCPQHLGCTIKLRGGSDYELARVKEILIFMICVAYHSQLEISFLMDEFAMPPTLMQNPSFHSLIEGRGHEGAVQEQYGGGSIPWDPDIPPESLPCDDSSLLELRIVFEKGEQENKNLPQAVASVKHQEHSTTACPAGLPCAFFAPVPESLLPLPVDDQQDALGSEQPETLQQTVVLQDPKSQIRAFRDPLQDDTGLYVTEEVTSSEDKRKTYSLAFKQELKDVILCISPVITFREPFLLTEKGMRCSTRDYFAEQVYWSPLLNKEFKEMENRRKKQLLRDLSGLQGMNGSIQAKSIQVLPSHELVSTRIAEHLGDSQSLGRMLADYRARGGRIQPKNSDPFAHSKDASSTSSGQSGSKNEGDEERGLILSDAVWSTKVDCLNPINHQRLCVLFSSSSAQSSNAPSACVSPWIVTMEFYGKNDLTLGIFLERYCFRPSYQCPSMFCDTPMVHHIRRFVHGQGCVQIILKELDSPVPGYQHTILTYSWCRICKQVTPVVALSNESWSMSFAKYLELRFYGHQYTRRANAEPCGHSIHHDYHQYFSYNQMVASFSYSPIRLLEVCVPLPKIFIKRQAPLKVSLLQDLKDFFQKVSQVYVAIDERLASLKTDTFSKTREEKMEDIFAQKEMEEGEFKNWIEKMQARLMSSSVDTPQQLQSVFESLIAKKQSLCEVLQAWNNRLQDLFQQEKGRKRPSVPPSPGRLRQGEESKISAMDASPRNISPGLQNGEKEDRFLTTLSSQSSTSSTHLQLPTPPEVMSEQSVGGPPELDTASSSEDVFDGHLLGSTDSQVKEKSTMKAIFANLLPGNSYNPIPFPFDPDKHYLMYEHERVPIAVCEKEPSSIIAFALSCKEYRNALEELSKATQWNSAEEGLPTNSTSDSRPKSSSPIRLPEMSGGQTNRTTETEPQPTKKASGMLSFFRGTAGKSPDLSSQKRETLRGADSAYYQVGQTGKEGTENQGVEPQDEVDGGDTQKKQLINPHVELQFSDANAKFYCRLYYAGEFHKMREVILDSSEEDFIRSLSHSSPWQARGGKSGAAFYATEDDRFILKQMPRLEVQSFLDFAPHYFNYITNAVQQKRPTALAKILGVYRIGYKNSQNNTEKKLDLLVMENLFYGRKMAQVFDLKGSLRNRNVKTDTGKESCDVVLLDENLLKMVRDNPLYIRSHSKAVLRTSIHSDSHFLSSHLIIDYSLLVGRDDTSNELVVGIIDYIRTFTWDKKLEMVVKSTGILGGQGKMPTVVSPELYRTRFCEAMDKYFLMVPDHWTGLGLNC
UniProt P13861: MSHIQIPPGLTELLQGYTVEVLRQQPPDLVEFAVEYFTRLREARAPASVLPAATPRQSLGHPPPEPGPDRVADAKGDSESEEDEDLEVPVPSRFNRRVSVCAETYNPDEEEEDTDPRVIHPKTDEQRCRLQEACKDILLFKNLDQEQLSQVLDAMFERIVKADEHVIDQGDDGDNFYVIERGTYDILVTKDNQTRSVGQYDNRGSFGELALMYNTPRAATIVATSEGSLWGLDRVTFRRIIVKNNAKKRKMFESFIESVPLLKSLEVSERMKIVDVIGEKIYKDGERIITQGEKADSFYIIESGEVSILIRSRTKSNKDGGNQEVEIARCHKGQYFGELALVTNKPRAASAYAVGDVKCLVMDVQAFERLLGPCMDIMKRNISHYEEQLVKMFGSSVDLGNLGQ
UniProt Q14318: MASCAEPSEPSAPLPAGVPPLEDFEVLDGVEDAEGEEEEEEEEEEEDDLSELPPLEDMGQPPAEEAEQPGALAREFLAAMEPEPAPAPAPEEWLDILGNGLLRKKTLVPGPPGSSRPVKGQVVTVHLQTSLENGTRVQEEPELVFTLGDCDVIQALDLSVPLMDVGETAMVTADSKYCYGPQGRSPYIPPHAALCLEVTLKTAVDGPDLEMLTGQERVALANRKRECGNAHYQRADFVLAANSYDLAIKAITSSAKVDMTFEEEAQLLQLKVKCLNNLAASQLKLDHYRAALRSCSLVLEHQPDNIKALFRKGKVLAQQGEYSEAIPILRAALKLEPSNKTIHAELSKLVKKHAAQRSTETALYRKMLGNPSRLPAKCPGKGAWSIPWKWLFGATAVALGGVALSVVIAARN
UniProt O94901: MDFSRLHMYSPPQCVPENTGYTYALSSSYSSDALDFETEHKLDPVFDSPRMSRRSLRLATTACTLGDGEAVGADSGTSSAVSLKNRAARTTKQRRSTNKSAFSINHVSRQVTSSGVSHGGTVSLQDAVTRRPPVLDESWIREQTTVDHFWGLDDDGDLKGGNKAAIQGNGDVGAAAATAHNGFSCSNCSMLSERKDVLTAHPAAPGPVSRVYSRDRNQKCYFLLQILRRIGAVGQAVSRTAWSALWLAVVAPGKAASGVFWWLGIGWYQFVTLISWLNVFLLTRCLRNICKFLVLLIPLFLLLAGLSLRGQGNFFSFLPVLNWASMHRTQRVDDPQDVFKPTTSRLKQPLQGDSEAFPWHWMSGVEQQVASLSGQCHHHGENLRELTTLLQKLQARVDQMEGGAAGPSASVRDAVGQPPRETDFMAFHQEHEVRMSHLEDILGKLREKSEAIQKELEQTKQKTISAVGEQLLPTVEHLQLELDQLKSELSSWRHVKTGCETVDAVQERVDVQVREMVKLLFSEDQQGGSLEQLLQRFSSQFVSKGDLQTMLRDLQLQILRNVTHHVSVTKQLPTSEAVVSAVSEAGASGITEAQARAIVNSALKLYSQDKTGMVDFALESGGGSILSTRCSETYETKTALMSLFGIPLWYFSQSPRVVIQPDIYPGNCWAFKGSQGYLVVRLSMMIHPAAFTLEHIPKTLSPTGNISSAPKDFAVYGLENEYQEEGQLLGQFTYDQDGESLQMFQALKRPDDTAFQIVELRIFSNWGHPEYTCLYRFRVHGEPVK

Like-named read-outs stand apart in the source and are kept apart here. Results are given in words; binding and its absence hold for the method and conditions named. Binding seen in cells or lysates may run through a third protein. Here binding means that the protein was enriched with, or labelled near, the bait; the list need not be complete.

On to Drp1 (from UniProt O00429 1-736), for which the binding entry in the test with BirA*-BaxS184V, with BirA*-Bcl-2, in the test with BirA*-Bcl-XL [1] and with BirA*-Bcl-XL [2] was “binds” throughout.

For the substance BCL2L13 (from UniProt Q9BXK5 1-485), the binding result with BirA*-Bcl-XL [1] was “binds”.

For the substance CKAP4 (from UniProt Q07065 1-602), the binding result with BirA*-Bcl-2 is listed as “binds”.

With PIKfyve (from UniProt Q9Y2I7 1-2098), the binding result with BirA*-BaxS184V and with BirA*-BaxWT was “binds” in each case.

Turning to “cAMP-dependent protein kinase type II regulatory subunit (from UniProt P13861 1-404)”, the binding result with BirA*-Bcl-XL [2] was “binds”.

In the case of MAVS (from UniProt Q7Z434 1-540), the binding entry with BirA*-BaxS184V was “binds”.

Turning to “FK506-binding protein 8 (from UniProt Q14318 1-412)”, the binding result with BirA*-Bcl-XL [2] was “binds”.

SUN1 (from UniProt O94901 1-785): the binding entry with BirA*-Bcl-2 is “binds”.
